Measured values taken from paper PMC10732327.
Results are given in words; binding and its absence hold for the method and conditions named. In cells and extracts the contact can be indirect. Some results given as binding are weak or reduced against the parent protein; the word gives no strength.

Protein sequences, listed by entry. Tags and fused reporters are not part of them.
UniProt Q9UPY5: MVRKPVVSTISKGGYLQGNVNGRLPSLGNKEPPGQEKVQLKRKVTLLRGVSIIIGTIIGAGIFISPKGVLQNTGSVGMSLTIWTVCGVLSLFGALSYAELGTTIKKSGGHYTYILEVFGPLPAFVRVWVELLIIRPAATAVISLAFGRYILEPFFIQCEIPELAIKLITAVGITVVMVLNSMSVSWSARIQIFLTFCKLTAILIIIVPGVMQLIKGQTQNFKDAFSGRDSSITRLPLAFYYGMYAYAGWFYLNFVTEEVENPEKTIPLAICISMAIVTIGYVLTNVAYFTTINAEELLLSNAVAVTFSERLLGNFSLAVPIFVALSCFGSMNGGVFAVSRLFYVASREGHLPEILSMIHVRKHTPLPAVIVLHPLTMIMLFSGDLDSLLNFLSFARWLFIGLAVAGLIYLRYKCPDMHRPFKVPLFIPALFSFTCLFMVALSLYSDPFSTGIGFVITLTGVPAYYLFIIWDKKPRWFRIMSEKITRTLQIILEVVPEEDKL
UniProt Q13535: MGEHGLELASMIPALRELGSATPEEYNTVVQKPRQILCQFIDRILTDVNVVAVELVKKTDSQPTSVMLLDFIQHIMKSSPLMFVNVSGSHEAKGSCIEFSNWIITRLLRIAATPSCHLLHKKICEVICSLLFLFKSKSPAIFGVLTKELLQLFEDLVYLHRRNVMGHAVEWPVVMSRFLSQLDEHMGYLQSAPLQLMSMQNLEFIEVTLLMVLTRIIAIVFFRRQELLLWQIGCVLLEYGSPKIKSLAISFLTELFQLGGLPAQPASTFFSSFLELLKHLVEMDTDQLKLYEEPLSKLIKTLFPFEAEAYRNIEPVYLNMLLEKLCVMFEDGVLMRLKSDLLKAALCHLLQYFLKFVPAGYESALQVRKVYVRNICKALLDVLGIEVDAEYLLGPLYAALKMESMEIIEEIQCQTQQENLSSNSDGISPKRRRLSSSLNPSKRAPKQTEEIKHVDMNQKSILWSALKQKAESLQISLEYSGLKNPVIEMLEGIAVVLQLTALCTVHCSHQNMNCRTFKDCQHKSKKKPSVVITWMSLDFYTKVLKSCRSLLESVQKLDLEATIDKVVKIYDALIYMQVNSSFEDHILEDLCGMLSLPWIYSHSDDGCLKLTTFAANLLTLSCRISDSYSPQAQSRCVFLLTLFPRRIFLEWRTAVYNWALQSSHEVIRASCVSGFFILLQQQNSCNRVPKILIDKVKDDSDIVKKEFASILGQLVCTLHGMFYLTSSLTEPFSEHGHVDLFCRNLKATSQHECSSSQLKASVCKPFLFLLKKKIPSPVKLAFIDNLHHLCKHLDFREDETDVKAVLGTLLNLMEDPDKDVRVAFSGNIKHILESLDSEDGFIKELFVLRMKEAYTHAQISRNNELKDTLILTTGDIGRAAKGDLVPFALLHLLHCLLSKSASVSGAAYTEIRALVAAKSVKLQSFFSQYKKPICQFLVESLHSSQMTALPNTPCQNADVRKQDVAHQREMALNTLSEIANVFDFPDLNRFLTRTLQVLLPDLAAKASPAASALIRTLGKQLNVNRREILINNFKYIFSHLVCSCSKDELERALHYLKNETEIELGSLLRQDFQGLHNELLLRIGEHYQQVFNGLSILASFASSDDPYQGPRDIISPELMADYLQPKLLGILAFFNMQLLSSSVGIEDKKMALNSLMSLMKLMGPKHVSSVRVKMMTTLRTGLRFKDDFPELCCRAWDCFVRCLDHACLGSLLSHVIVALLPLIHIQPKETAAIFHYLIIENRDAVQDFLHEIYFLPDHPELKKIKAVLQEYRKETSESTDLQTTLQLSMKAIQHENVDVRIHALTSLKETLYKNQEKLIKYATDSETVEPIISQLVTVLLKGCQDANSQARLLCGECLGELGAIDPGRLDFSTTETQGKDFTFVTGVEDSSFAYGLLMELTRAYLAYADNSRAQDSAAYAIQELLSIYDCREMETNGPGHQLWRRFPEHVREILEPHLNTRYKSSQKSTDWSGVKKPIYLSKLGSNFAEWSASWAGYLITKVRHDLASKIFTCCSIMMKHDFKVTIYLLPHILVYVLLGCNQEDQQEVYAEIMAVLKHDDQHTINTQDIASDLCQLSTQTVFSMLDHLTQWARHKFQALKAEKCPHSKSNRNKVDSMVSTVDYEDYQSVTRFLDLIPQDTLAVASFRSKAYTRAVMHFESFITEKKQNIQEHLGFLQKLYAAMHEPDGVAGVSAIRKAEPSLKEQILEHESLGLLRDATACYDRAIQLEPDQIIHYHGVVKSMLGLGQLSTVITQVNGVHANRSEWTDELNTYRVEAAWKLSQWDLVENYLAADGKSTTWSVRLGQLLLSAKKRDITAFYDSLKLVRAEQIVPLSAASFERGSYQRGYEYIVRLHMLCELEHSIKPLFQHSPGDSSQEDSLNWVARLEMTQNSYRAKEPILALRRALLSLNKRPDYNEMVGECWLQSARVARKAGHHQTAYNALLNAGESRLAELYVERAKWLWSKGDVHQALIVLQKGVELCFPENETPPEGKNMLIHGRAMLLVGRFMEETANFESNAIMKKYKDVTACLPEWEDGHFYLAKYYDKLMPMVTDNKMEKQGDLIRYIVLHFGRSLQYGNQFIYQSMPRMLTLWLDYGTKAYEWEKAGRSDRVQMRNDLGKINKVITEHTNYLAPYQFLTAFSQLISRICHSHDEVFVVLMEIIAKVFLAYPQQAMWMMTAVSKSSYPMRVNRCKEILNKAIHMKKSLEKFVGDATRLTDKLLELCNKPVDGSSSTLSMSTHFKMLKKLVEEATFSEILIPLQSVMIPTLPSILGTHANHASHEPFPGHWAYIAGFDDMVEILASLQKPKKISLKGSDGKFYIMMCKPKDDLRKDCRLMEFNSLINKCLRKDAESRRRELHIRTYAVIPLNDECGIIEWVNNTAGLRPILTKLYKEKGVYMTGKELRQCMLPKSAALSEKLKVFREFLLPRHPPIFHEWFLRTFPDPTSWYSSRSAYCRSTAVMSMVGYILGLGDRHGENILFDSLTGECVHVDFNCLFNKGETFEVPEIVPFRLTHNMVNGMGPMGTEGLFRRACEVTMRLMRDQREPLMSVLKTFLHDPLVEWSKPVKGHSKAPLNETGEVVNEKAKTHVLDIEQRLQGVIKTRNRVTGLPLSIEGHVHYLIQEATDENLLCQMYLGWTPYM

Legend:
[1] = target: ubiquitin-specific peptidase 20 (USP20), endogenous (human (endogenous in Huh-7)) (UniProt Q9Y2K6); test: co-IP; endogenous proteins in Huh-7 cells, harvested with RIPA lysis buffer at 4°C; Co-IP with antibody as indicated
[2] = target: Solute carrier family 7 member 11 (SLC7A11), endogenous (human (endogenous in Huh-7)) (UniProt Q9UPY5); test: as above

| Substance | binding [1] | binding [2] |
| --- | --- | --- |
| ATR, endogenous (from UniProt Q13535 1-2644) (enzyme) | binds |  |
| ubiquitin-specific peptidase 20 (USP20), endogenous (from UniProt Q9Y2K6 1-914) (enzyme) |  | binds |
